Read-outs that look alike come from different tables or passages of the source.
Columns and labels:
[1] = in vivo; conditions: male, Swiss CFW, mouse, plasma; for AUC: po
[2] = fed mice, alendronate 0.4 mg/kg, alone or +4x molar BAC-A6
[3] = fasted mice, alendronate 4 mg/kg; for Plasma alendronate: oral, BAC 0x
[4] = oral, 0.4 mg/kg, Plasma alendronate, fed mice, oral, alendronate 0.4 mg/kg alone or +BAC-A6 4X molar
[5] = oral, 4 mg/kg, Plasma alendronate, fasted mice, oral, alendronate 4 mg/kg alone or +BAC-A6 4X molar
[6] = oral, 4 mg/kg, Plasma alendronate, fed mice, oral, alendronate 4 mg/kg alone or +BAC-A6 4X molar

A concentration at 0 h [1, 4] of 0 ng/mL, a concentration at 0.75 h [1, 4] of 6.64 ng/mL and a concentration at 1 h [1, 4] of 5.19 ng/mL were found for `NCCCC(O)(P(=O)(O)O)P(=O)(O)O` [Alendronate, alendronate] in this work. The concentration at 1.5 h ([1]; oral, 0.4 mg/kg, Plasma alendronate, fed mice, oral, alendronate 0.4 mg/kg alone or +BAC-A6 4X molar, 1.5 h) was 4.95 ng/mL, the concentration at 2 h [1, 4] was 5.92 ng/mL and the concentration at 3 h ([1]; oral, 0.4 mg/kg, Plasma alendronate, fed mice, oral, alendronate 0.4 mg/kg alone or +BAC-A6 4X molar, 3 h) was 6.4 ng/mL. For the same compound, the concentration at 4 h [1, 4] was 4.71 ng/mL, the concentration at 0 h [1, 5] was 0 ng/mL and the concentration at 0.5 h ([1]; oral, 4 mg/kg, Plasma alendronate, fasted mice, oral, alendronate 4 mg/kg alone or +BAC-A6 4X molar, 0.5 h) was 27.2 ng/mL. It also gave a concentration at 1 h [1, 5] of 28.1 ng/mL, a concentration at 2 h [1, 5] of 18 ng/mL and a concentration at 4 h [1, 5] of 7.83 ng/mL. For the same compound, the concentration at 0 h [1, 6] was 0 ng/mL, the concentration at 0.75 h [1, 6] was 29.9 ng/mL and the concentration at 1 h [1, 6] was 28 ng/mL. The concentration at 2 h [1, 6] was 13.1 ng/mL, the concentration at 4 h [1, 6] was 0.93 ng/mL and the AUC ([1]; 0.4 mg/kg, AUC (interval), fed mice, alendronate 0.4 mg/kg alone or +BAC-A6 4X molar, interval ending 0.75 h) was 3.11 ng·h/mL. The AUC ([1]; 0.4 mg/kg, AUC (interval), fed mice, alendronate 0.4 mg/kg alone or +BAC-A6 4X molar, interval ending 1 h) was 1.48 ng·h/mL, the AUC ([1]; 0.4 mg/kg, AUC (interval), fed mice, alendronate 0.4 mg/kg alone or +BAC-A6 4X molar, interval ending 1.5 h) was 2.54 ng·h/mL and the AUC ([1]; 0.4 mg/kg, AUC (interval), fed mice, alendronate 0.4 mg/kg alone or +BAC-A6 4X molar, interval ending 2 h) was 2.72 ng·h/mL. For the same compound, the AUC ([1]; 0.4 mg/kg, AUC (interval), fed mice, alendronate 0.4 mg/kg alone or +BAC-A6 4X molar, interval ending 3 h) was 6.16 ng·h/mL, the AUC ([1]; 0.4 mg/kg, AUC (interval), fed mice, alendronate 0.4 mg/kg alone or +BAC-A6 4X molar, interval ending 4 h) was 5.56 ng·h/mL and the AUC ([1]; 0.4 mg/kg, AUC (interval), fed mice, alendronate 0.4 mg/kg alone or +BAC-A6 4X molar, interval ending […]) was 0.72 ng·h/mL. The AUC ([1]; 0.4 mg/kg, AUC (sum), fed mice, alendronate 0.4 mg/kg alone or +BAC-A6 4X molar, 0-4 h) was 22.3 ng·h/mL, the AUC ([1]; 4 mg/kg, AUC (interval), fasted mice, alendronate 4 mg/kg alone or +BAC-A6 4X molar, interval ending 0.5 h) was 6.8 ng·h/mL and the AUC ([1]; 4 mg/kg, AUC (interval), fasted mice, alendronate 4 mg/kg alone or +BAC-A6 4X molar, interval ending 1 h) was 13.8 ng·h/mL. For the same compound, the AUC ([1]; 4 mg/kg, AUC (interval), fasted mice, alendronate 4 mg/kg alone or +BAC-A6 4X molar, interval ending 2 h) was 23 ng·h/mL, the AUC ([1]; 4 mg/kg, AUC (interval), fasted mice, alendronate 4 mg/kg alone or +BAC-A6 4X molar, interval ending 4 h) was 25.8 ng·h/mL and the AUC ([1]; 4 mg/kg, AUC (interval), fed mice, alendronate 4 mg/kg alone or +BAC-A6 4X molar, interval ending 0.75 h) was 13.1 ng·h/mL. The AUC ([1]; 4 mg/kg, AUC (interval), fed mice, alendronate 4 mg/kg alone or +BAC-A6 4X molar, interval ending 1 h) was 7.23 ng·h/mL, the AUC ([1]; 4 mg/kg, AUC (interval), fed mice, alendronate 4 mg/kg alone or +BAC-A6 4X molar, interval ending 2 h) was 20.5 ng·h/mL and the AUC ([1]; 4 mg/kg, AUC (interval), fed mice, alendronate 4 mg/kg alone or +BAC-A6 4X molar, interval ending 4 h) was 14 ng·h/mL. For the same compound, the AUC ([1]; 4 mg/kg, AUC (interval), fed mice, alendronate 4 mg/kg alone or +BAC-A6 4X molar, interval ending […]) was 2.8 ng·h/mL, the AUC ([1]; 4 mg/kg, AUC (sum), fasted mice, alendronate 4 mg/kg alone or +BAC-A6 4X molar, 0-4 h) was 69.5 ng·h/mL and the AUC ([1]; 4 mg/kg, AUC (sum), fed mice, alendronate 4 mg/kg alone or +BAC-A6 4X molar, 0-4 h) was 57.6 ng·h/mL. For the same compound, the “AUC summary line (sum divided by 4 h)” value [2] was 5.57 ng/mL/h, the “AUC summary line (sum divided by 2 h)” value ([3]; BAC-A6 0x) was 29.99 ng/mL/h and the Plasma alendronate ([3]; 0 h) was 0.00. It also gave a Plasma alendronate ([3]; 0.5 h) of 20.09, a Plasma alendronate ([3]; 0.75 h) of 18.91 and a Plasma alendronate ([3]; 1 h) of 40.18. It also gave a Plasma alendronate ([3]; 2 h) of 40.18 and a Plasma alendronate ([3]; […]) of 20.09.
